From PMC5688130
Results are given in words; binding and its absence hold for the method and conditions named.

Legend:
[1] = biological target: human CDC73(1–111) (human) (UniProt Q6P1J9); experiment: SEC + AUC; sedimentation velocity at 20 °C, 60 krpm, 20 mM Tris pH7.5, 400 mM NaCl, A280 ~0.7; self-association of the fragment tested; both purified
[2] = biological target: human CDC73(1–100) (human) (UniProt Q6P1J9); experiment: as above

Row | Substance | binding [1] | binding [2]
1 | human CDC73(1–111) (from UniProt Q6P1J9 1-111) (domain or fragment) | no binding (tested: A280 absorbance of ~0.7) | –
2 | human CDC73(1–100) (from UniProt Q6P1J9 1-100) (domain or fragment) | – | no binding (tested: A280 absorbance of ~0.7)
